Measured data: PubChem BioAssay AID743454 (Peter MacCallum Cancer Centre, 2014)
Purpose: 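Knock-downs lowering viability or raising caspase 3/7 activity in vorinostat-treated resistant cells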 (primary screen). Cell system: human HCT116-VR colon cancer cells, selected for vorinostat resistance. Knock-down reagent: siRNA pool against human genes, 40 nM siRNA pool. Duration: vorinostat for 24 h, read-out about 72 h after transfection. Treatment: vorinostat at 2.5 µM final. Read-out: 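Cell viability by CellTiter-Fluor and caspase 3/7 activity by luminescence, each scaled to mock wells per plate, duplicates averaged, then robust z-scored over all plates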. Scale: viability robust z-score: higher = more viable cells than screen typical; caspase robust z-score: higher = more caspase 3/7 activity than screen typical. Hit rule: 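a knock-down is a hit when classed RV1 or RV2 for lowered viability, or CA1 or CA2 for caspase activation; those lethal without drug were dropped; hits were retested singly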.
The deposit covers about 18,000 reagents; this is a part drawn at random. In the full data, 450 (2.5%) were called active. 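Single biological run; no consistent viability z cut-off exists, so the class columns, not z-scores, define the calls.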 Reagent sequences are not shown.

WFIKKN2 → viability hit class = no change; caspase hit class = no change; viability robust z-score = -0.12; caspase robust z-score = -0.87; activity call = inactive
OR10H3 (olfactory receptor family 10 subfamily H member 3) → viability hit class = no change; caspase hit class = no change; viability robust z-score = 0.71; caspase robust z-score = 0.2; activity call = inactive
ZNF577 (zinc finger protein 577) → viability hit class = no change; caspase hit class = no change; viability robust z-score = -0.84; caspase robust z-score = -0.9; activity call = inactive
PTH (parathyroid hormone) → viability hit class = no change; caspase hit class = no change; viability robust z-score = 0.92; caspase robust z-score = 0.02; activity call = inactive
EPN1 (epsin 1) → viability hit class = no change; caspase hit class = no change; viability robust z-score = 0.04; caspase robust z-score = 0.36; activity call = inactive
ZBTB44 (zinc finger and BTB domain containing 44) → viability hit class = no change; caspase hit class = no change; viability robust z-score = 2.16; caspase robust z-score = 0.06; activity call = inactive
RABEP1 (rabaptin, RAB GTPase binding effector protein 1) → viability hit class = no change; caspase hit class = no change; viability robust z-score = 0.75; caspase robust z-score = -0.16; activity call = inactive

Reformatted: entries from further up
PTH (parathyroid hormone)
- viability hit class: no change
- caspase hit class: no change
- viability robust z-score: 0.92
- caspase robust z-score: 0.02
- activity call: inactive

EPN1 (epsin 1)
- viability hit class: no change
- caspase hit class: no change
- viability robust z-score: 0.04
- caspase robust z-score: 0.36
- activity call: inactive

Continued:
CTXN1 (cortexin 1) → viability hit class = no change; caspase hit class = no change; viability robust z-score = 0.36; caspase robust z-score = 1.23; activity call = inactive
PIGO (phosphatidylinositol glycan anchor biosynthesis class O) → viability hit class = no change; caspase hit class = no change; viability robust z-score = -1.29; caspase robust z-score = 1.55; activity call = inactive
RNF39 (ring finger protein 39) → viability hit class = no change; caspase hit class = no change; viability robust z-score = -0.22; caspase robust z-score = 0.8; activity call = inactive
FUBP3 (far upstream element binding protein 3) → viability hit class = no change; caspase hit class = no change; viability robust z-score = 1.07; caspase robust z-score = 0.85; activity call = inactive
ETV5 (ETS variant transcription factor 5) → viability hit class = no change; caspase hit class = no change; viability robust z-score = -0.88; caspase robust z-score = 1.75; activity call = inactive
CACNB4 (calcium voltage-gated channel auxiliary subunit beta 4) → viability hit class = no change; caspase hit class = no change; viability robust z-score = -1.25; caspase robust z-score = 1.9; activity call = inactive
SLC7A13 → viability hit class = no change; caspase hit class = no change; viability robust z-score = 1.16; caspase robust z-score = -0.41; activity call = inactive
